Assay results taken from article PMC5661651.
These are yes or no findings as the source states them, for the method shown. In cells and extracts the contact can be indirect. Some binding calls cover weakened binding; strength is not graded here.

By UniProt entry, the sequences of proteins in these tests, tags left out.
UniProt P25911: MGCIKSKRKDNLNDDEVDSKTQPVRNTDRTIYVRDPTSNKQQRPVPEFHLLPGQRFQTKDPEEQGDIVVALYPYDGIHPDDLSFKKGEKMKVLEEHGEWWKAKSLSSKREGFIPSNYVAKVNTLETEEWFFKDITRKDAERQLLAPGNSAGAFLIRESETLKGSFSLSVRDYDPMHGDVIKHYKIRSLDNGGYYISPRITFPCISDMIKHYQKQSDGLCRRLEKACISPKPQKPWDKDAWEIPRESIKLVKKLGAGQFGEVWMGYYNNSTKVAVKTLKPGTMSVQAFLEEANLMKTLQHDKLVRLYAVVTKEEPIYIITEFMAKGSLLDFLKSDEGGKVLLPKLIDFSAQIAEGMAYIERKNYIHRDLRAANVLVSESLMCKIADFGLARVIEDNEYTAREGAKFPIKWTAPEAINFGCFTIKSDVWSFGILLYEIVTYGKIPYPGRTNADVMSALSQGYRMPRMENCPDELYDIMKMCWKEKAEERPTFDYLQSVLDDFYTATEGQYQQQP
UniProt P26040: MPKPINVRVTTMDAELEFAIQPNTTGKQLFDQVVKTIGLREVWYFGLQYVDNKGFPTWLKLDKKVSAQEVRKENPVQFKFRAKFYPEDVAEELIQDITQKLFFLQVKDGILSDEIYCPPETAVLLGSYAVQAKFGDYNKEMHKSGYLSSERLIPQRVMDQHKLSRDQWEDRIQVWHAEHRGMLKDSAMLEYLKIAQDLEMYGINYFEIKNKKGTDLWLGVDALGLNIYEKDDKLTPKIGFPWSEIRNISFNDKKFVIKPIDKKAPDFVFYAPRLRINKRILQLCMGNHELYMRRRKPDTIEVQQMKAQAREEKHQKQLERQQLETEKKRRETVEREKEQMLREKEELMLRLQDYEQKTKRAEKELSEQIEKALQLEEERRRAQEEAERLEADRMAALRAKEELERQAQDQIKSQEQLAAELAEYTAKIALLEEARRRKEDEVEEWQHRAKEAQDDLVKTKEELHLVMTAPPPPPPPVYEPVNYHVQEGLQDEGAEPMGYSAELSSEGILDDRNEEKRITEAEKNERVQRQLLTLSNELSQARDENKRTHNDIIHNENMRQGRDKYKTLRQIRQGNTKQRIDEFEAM

Target: Lyn (mouse (endogenous in MH-S)) (UniProt P25911)
Assay: co-IP; siNC-treated (WT) MH-S cells infected with PAO1 (MOI 20:1, 30 min); whole-cell lysates mixed with anti-Lyn or anti-IL-6R antibody coupled to protein A/G agarose beads; immunoblot

Ezrin (from UniProt P26040 1-586)
binding: binds
